Data reported in the supplement of paper PMC10849652.
This is one part of the list.

Chains of the proteins cited; added tags and fusions are not shown. Lines headed by an entry give the natural chain unless they say otherwise; changes in a name come on top.
UniProt P61803: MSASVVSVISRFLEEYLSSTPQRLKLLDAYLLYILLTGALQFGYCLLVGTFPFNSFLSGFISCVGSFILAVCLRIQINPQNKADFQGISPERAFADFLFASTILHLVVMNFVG
UniProt Q5VW00: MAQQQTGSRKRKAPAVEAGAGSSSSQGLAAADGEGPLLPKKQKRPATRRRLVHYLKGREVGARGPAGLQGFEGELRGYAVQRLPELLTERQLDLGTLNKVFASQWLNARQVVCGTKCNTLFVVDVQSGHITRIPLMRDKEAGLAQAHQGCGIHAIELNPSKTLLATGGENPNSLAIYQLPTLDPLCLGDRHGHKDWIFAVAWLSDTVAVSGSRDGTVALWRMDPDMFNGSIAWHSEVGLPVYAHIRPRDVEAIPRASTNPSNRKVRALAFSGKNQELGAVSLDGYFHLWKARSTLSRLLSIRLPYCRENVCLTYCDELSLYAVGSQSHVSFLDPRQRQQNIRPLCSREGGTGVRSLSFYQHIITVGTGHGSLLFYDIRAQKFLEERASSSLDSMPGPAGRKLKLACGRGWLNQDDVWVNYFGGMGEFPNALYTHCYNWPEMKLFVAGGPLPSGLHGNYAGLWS
UniProt Q92564: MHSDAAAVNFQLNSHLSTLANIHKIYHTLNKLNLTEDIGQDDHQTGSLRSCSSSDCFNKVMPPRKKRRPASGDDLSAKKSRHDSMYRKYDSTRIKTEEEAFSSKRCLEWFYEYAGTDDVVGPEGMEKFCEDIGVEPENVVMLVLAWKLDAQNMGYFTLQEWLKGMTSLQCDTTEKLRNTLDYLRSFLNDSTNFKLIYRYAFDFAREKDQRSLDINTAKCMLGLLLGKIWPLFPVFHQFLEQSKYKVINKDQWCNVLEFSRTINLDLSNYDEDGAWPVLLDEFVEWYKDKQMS
UniProt P98082: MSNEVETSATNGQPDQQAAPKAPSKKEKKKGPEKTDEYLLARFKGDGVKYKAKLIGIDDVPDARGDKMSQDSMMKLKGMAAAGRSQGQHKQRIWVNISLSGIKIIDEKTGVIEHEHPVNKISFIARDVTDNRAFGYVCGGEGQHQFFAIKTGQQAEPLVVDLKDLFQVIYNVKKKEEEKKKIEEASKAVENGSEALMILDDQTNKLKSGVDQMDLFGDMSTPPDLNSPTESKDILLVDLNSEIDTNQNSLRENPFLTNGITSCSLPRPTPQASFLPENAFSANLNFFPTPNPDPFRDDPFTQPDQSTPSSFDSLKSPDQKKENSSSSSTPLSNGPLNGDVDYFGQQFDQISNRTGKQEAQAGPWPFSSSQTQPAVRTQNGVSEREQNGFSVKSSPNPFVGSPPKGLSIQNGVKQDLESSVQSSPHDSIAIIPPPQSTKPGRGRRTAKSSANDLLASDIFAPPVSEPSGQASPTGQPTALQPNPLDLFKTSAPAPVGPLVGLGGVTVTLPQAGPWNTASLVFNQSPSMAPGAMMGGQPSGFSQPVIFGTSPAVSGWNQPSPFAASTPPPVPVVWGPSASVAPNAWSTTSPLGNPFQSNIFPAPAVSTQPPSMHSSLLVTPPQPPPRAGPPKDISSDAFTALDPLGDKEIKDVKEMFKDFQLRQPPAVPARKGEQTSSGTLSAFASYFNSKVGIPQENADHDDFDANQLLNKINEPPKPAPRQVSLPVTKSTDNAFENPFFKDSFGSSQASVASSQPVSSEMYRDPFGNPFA
UniProt Q9NPI6: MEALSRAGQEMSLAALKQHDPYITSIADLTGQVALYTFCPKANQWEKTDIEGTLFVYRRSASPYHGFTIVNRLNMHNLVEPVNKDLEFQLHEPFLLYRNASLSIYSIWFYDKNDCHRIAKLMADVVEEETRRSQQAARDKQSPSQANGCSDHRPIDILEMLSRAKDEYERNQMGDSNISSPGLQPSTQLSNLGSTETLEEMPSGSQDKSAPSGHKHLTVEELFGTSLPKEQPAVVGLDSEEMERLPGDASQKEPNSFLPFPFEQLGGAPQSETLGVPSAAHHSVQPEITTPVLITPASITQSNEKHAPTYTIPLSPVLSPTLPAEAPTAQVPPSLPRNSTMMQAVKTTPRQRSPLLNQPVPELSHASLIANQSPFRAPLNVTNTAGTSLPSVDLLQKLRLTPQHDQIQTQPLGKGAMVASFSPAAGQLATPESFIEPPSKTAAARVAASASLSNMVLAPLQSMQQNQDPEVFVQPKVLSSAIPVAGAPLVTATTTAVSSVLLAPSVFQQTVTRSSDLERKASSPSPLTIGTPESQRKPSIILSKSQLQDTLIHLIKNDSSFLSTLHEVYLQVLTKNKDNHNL
UniProt Q5TDH0: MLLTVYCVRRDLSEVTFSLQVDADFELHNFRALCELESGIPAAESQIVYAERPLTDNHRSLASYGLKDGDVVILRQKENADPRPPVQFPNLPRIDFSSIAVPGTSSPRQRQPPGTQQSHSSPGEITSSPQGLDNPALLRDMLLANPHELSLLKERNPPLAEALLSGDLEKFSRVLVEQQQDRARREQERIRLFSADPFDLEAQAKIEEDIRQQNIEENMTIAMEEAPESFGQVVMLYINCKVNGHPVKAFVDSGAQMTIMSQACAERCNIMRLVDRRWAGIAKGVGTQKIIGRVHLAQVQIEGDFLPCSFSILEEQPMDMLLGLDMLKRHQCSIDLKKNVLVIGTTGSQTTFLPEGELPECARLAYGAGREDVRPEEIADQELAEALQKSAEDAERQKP
UniProt P32321: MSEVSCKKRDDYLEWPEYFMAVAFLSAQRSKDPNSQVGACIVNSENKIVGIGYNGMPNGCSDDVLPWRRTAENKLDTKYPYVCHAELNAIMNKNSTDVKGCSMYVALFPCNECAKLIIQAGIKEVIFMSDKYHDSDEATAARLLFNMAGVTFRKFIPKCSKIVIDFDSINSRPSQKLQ
UniProt Q13838, whole entry, looked up: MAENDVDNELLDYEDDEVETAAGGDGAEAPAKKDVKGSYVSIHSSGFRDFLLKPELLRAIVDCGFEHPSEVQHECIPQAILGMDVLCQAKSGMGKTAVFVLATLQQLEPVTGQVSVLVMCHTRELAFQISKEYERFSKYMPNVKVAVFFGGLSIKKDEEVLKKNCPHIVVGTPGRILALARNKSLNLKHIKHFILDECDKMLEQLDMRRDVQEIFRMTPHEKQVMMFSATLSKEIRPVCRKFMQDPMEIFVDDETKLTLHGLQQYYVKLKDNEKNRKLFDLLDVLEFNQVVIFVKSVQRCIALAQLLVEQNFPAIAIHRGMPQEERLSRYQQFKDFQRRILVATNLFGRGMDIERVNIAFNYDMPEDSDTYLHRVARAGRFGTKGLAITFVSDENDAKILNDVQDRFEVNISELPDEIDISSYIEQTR
UniProt O00148, whole entry, looked up: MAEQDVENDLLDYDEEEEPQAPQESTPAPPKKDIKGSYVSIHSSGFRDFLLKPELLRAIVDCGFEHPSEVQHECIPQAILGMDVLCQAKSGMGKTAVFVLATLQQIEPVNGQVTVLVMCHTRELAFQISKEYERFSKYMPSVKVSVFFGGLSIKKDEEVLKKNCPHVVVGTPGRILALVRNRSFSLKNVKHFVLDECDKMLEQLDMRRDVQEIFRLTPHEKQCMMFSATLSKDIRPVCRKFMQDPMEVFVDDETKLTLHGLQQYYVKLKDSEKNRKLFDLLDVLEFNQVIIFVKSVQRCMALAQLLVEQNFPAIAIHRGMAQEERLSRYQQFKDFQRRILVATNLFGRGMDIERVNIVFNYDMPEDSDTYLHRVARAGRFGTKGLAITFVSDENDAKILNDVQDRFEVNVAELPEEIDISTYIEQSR
UniProt O00399, whole entry, looked up: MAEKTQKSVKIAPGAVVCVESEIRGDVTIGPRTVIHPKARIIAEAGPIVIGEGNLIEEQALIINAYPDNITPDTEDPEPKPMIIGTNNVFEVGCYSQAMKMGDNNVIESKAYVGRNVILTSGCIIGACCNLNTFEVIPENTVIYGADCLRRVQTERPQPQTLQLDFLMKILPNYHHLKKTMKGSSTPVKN
UniProt P30046: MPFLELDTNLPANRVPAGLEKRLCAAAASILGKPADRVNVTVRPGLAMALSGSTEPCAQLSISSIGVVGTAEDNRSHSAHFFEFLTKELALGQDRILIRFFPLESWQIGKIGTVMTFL
UniProt Q8NHQ9: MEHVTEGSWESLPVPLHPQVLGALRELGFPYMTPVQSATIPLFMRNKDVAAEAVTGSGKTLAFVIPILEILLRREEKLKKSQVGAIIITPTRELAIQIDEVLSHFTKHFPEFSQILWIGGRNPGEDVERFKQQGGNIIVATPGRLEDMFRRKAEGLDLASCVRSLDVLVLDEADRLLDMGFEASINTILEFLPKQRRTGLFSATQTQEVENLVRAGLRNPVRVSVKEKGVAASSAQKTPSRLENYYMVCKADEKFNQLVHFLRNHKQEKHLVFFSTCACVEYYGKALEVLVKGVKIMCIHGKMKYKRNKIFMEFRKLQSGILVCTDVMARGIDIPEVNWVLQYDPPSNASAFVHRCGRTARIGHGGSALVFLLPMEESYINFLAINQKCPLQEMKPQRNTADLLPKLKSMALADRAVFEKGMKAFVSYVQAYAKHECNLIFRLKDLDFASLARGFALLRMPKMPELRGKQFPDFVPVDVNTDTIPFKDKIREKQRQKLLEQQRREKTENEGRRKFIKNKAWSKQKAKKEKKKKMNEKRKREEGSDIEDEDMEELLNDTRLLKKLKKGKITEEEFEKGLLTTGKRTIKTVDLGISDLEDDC
UniProt Q9NVP1: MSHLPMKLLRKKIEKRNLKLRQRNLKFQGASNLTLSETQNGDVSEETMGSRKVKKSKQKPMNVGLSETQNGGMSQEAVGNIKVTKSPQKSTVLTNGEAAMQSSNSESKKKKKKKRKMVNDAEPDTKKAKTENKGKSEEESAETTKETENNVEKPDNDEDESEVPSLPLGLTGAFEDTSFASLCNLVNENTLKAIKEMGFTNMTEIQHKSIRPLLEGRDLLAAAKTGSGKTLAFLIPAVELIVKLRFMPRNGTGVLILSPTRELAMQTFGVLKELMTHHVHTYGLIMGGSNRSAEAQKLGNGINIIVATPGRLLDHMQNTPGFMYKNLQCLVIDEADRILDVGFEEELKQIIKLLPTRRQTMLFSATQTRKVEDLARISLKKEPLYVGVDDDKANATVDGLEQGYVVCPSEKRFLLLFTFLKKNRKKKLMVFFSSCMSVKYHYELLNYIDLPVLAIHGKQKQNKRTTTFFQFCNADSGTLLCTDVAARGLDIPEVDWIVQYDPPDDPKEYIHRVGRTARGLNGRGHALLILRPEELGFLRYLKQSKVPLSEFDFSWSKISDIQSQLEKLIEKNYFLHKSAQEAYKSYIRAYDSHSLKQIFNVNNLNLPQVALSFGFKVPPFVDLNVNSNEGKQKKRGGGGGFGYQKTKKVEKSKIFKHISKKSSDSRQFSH
UniProt Q7Z4W1: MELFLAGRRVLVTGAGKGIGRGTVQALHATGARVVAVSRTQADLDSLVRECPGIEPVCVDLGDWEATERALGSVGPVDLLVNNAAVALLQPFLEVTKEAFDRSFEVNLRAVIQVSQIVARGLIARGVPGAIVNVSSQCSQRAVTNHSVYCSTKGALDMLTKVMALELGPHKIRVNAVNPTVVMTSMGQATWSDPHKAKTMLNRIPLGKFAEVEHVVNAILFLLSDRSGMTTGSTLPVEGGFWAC
UniProt Q8NEL9: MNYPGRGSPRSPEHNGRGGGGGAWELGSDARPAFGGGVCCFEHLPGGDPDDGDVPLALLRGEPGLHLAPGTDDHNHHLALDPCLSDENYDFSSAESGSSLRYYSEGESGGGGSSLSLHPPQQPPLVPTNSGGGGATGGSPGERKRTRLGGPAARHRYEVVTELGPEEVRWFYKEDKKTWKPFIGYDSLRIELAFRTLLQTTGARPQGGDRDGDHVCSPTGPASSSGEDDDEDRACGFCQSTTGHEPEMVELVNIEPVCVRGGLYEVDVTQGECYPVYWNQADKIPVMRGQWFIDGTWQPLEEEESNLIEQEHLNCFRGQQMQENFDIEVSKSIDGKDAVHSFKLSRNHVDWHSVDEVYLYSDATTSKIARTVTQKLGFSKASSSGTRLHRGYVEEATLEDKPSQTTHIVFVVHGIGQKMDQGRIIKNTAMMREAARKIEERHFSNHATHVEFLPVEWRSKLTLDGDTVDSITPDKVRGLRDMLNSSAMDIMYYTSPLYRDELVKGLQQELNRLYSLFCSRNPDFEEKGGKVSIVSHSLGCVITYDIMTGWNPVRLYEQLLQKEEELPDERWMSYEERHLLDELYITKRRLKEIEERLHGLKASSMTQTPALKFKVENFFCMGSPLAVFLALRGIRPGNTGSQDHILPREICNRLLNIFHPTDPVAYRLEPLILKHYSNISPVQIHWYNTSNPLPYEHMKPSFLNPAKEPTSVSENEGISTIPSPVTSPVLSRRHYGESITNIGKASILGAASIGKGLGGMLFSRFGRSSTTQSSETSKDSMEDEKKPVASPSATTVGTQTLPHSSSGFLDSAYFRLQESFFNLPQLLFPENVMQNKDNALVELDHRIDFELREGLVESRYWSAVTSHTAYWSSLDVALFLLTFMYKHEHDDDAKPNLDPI
UniProt P07108: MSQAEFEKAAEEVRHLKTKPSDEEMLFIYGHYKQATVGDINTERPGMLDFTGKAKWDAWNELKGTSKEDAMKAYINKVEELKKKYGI

Columns and labels:
Experiment in all cases: log2 fold change, soluble protein after heating vs DMSO (PISA); higher = thermal stabilisation; K562 lysate, 10 uM; active = over 0.2 and 3.5 SD of the protein, either way, in both replicates (recomputed)
ibrutinib = compound: C=CC(=O)N1CCC[C@@H](n2nc(-c3ccc(Oc4ccccc4)cc3)c3c(N)ncnc32)C1 [ibrutinib]
Method in brief: (§1)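 The values are log-two fold changes in thermal stability compared with solvent controls and come from duplicates. They were obtained by TMTpro 16plex LC-MS/MS, with channel sums equalised, on the supernatant after 21,000xg for 90 min. That supernatant came from crude K562 extract at 1 mg/mL protein treated with 10 μM compound for 30 min, heated for 3 min across 48°C-58°C, pooled and brought to 0.5% NP-40 at 4°C.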

[1] = compound: CC(=O)c1cnc2ccc(-c3cc(Cl)c(O)c(Cl)c3)nc2c1N[C@H]1CC[C@H](CN(C)C)CC1
Method in brief: as §1

ralimetinib = compound: CC(C)(C)Cn1c(N)nc2ccc(-c3[nH]c(C(C)(C)C)nc3-c3ccc(F)cc3)nc21 [ralimetinib]
Method in brief: as §1

[2] = compound: CC(C)(O)CC(=O)NCCn1ccc2ncnc(Nc3ccc(Oc4cccc(C(F)(F)F)c4)c(Cl)c3)c21
Method in brief: as §1

[3] = compound: CC(C)C1=C2N=C(C=C(N2N=C1)NCC3=CC=CC=C3)NCCCCCCN
Method in brief: as §1

[4] = compound: CC1=C(C(CC(=O)N1)C2=CC=C(C=C2)C(F)(F)F)C(=O)NC3=C(C=C4C(=C3)C=NN4)F
Method in brief: as §1

[5] = compound: CC1=C(C2=C(C=C1)C(=O)C3=CC=CC=C3N2CCCN)C
Method in brief: as §1

[6] = compound: CC1=C(C=C(C=C1)NC(=O)C2=CC(=CC=C2)C(C)(C)C#N)NC3=CC4=C(C=C3)N=CN(C4=O)C
Method in brief: as §1

[7] = compound: CC1=C(C=C(C=C1)NC(=O)C2=CC(=CC=C2)N(C)C)NC(=O)C3=CC=C(C=C3)O
Method in brief: as §1

[8] = compound: CC1=CC=C(C=C1)SC2=C3C=C(SC3=CN=C2)C(=O)N
Method in brief: as §1

Measured: log2 fold change

DCK (UniProt P27707)
inactive: ibrutinib -0.002 | [1] 0.074 | ralimetinib -0.005 | [2] -0.004 | [3] 0.007 | [4] -0.039 | [5] -0.033 | [6] 0.064 | [7] 0.014 | [8] 0.002

DAD1 (UniProt P61803)
inactive: ibrutinib 0.058 | [1] -0.02 | ralimetinib 0.071 | [2] 0.016 | [3] -0.072 | [4] 0.034 | [5] -0.18 | [6] 0.066 | [7] 0.048 | [8] 0.063

DCAF12L2 (UniProt Q5VW00)
inactive: ibrutinib -0.026

DDX20 (UniProt Q9UHI6)
inactive: ibrutinib -0.01 | [1] 0.017 | ralimetinib 0.029 | [2] -0.029 | [3] -0.03 | [4] -0.011 | [5] 0.004 | [6] -0.006 | [7] 0.044 | [8] 0.01

DENND6A (UniProt Q8IWF6)
inactive: ibrutinib 0.014 | [1] 0.064 | ralimetinib 0.052 | [2] -0.047 | [3] 0.037 | [4] 0.002 | [5] -0.03 | [6] 0.001 | [7] 0.022 | [8] 0.051

DES (UniProt P17661)
inactive: ibrutinib 0.044 | [1] 0 | ralimetinib 0.025 | [2] -0.16 | [3] -0.01 | [4] -0.026 | [5] -0.045 | [6] 0.057 | [7] -0.017 | [8] -0.057

DCTN5 (UniProt Q9BTE1)
inactive: ibrutinib 0.102 | [1] 0.021 | ralimetinib -0.014 | [2] -0.086 | [3] -0.094 | [4] -0.011 | [5] -0.054 | [6] 0.007 | [7] -0.088 | [8] -0.013

DDX24 (UniProt Q9GZR7)
inactive: ibrutinib 0.003 | [1] -0.005 | ralimetinib 0.02 | [2] -0.01 | [3] 0.022 | [4] -0.016 | [5] -0.014 | [6] -0.008 | [7] 0.006 | [8] 0.02

DCUN1D4 isoform 3 (UniProt Q92564)
inactive: ibrutinib 0.064 | [1] 0.078 | ralimetinib -0.033 | [2] -0.057 | [3] 0.018 | [4] -0.009 | [5] -0.078 | [6] -0.027 | [7] 0.029 | [8] -0.059

Reprinted from the listing (2 entries):
DES (UniProt P17661)
inactive: ibrutinib 0.044 | [1] 0 | ralimetinib 0.025 | [2] -0.16 | [3] -0.01 | [4] -0.026 | [5] -0.045 | [6] 0.057 | [7] -0.017 | [8] -0.057

DCTN5 (UniProt Q9BTE1)
inactive: ibrutinib 0.102 | [1] 0.021 | ralimetinib -0.014 | [2] -0.086 | [3] -0.094 | [4] -0.011 | [5] -0.054 | [6] 0.007 | [7] -0.088 | [8] -0.013

Continuation:

DAZAP1 (UniProt Q96EP5)
inactive: ibrutinib -0.031 | [1] -0.011 | ralimetinib -0.124 | [2] 0.133 | [3] -0.023 | [4] -0.062 | [5] -0.015 | [7] -0.031 | [8] -0.009
active: [6] -0.359

DAB2 (UniProt P98082)
inactive: ibrutinib 0.071 | [1] 0.028 | ralimetinib 0.009 | [2] -0.061 | [3] 0.015 | [4] -0.004 | [5] 0.015 | [6] -0.003 | [7] 0.015 | [8] 0.002

DCP1A (UniProt Q9NPI6)
inactive: ibrutinib 0 | [1] -0.016 | ralimetinib 0.004 | [2] -0.042 | [3] 0.025 | [4] 0.013 | [5] -0.02 | [6] 0.046 | [7] 0.011 | [8] 0

DDI2 isoform 3 (UniProt Q5TDH0)
inactive: ibrutinib 0.007 | [1] 0.013 | ralimetinib -0.009 | [2] -0.049 | [3] -0.011 | [4] 0.002 | [5] 0.022 | [6] 0.014 | [7] 0.001 | [8] -0.021

DCTD isoform 2 (UniProt P32321)
inactive: ibrutinib -0.002 | [1] 0.017 | ralimetinib 0.01 | [2] 0.032 | [3] -0.014 | [4] -0.003 | [5] 0.011 | [6] 0.051 | [7] -0.011 | [8] 0

DDA1 (UniProt Q9BW61)
inactive: ibrutinib 0.108 | [1] -0.003 | ralimetinib 0 | [2] 0.019 | [3] -0.072 | [4] 0.028 | [5] 0.022 | [6] 0.01 | [7] 0.018 | [8] -0.017

CYP24A1 (UniProt Q07973)
inactive: ibrutinib 0.01 | [1] -0.036 | ralimetinib -0.03 | [2] -0.159 | [3] 0.019 | [4] -0.05 | [5] -0.051 | [6] 0.183 | [7] 0.007 | [8] -0.067

DDX21 (UniProt Q9NR30)
inactive: ibrutinib -0.023 | [1] -0.006 | ralimetinib 0.003 | [2] -0.001 | [3] 0.009 | [4] -0.024 | [5] -0.003 | [6] -0.011 | [7] 0.046 | [8] 0.025

DDX39B isoform 2 (UniProt Q13838)
inactive: ibrutinib 0.028 | [1] 0.007 | ralimetinib -0.004 | [2] 0.005 | [3] -0.012 | [4] 0.003 | [5] -0.002 | [6] -0.012 | [7] 0.008 | [8] -0.004

DBT (UniProt P11182)
inactive: ibrutinib 0.029 | [1] -0.002 | ralimetinib -0.016 | [2] -0.018 | [3] -0.014 | [4] -0.022 | [5] 0.004 | [6] 0.032 | [7] -0.009 | [8] 0.001

DDX39A (UniProt O00148)
inactive: ibrutinib -0.005 | [1] 0.062 | ralimetinib -0.009 | [2] 0.029 | [3] 0.022 | [4] 0 | [5] 0.009 | [6] -0.032 | [7] -0.016 | [8] -0.004

DECR1 (UniProt Q16698)
inactive: ibrutinib 0.006 | [1] 0.001 | ralimetinib 0.027 | [2] 0.012 | [3] 0.01 | [4] 0.01 | [5] -0.01 | [6] -0.011 | [7] -0.004 | [8] 0.007

DCTN6 (UniProt O00399)
inactive: ibrutinib 0.135 | [1] -0.016 | ralimetinib 0.006 | [2] -0.036 | [3] 0.011 | [4] 0.075 | [5] -0.044 | [6] 0.025 | [7] 0.008 | [8] -0.035

DEF6 (UniProt Q9H4E7)
inactive: ibrutinib 0.016 | [1] -0.007 | ralimetinib 0.098 | [2] -0.014 | [3] 0.022 | [4] 0.028 | [5] -0.024 | [6] -0.026 | [7] 0.066 | [8] -0.001

DDT (UniProt P30046)
inactive: ibrutinib 0.073 | [1] -0.014 | ralimetinib 0.006 | [2] -0.034 | [3] 0.013 | [4] -0.013 | [5] 0.017 | [6] 0.071 | [7] -0.05 | [8] 0.031

DDX55 (UniProt Q8NHQ9)
inactive: ibrutinib 0.017 | [1] -0.008 | ralimetinib 0.018 | [2] -0.032 | [3] 0.03 | [4] 0.021 | [5] -0.046 | [6] -0.039 | [7] 0.001 | [8] 0.027

DDX18 (UniProt Q9NVP1)
inactive: ibrutinib -0.018 | [1] -0.006 | ralimetinib -0.003 | [2] 0.012 | [3] -0.017 | [4] 0.013 | [5] -0.002 | [6] -0.032 | [7] 0.004 | [8] 0.001

DDB1 (UniProt Q16531)
inactive: ibrutinib 0.005 | [1] 0.002 | ralimetinib 0.02 | [2] 0.002 | [3] -0.017 | [4] -0.009 | [5] 0.014 | [6] 0.009 | [7] -0.026 | [8] -0.011

DCXR (UniProt Q7Z4W1)
inactive: ibrutinib 0.003 | [1] -0.02 | ralimetinib 0.003 | [2] -0.003 | [3] 0.009 | [4] 0.011 | [5] 0.001 | [6] -0.05 | [7] -0.013 | [8] 0.007

DDHD1 (UniProt Q8NEL9)
inactive: ibrutinib -0.021 | [1] -0.002 | ralimetinib 0.028 | [2] -0.117 | [3] 0.057 | [4] 0.054 | [5] -0.13 | [6] 0.017 | [7] -0.032 | [8] -0.01

DBI isoform 5 (UniProt P07108)
inactive: ibrutinib 0.067 | [1] -0.021 | ralimetinib -0.02 | [2] -0.037 | [3] -0.005 | [4] -0.021 | [5] 0.015 | [6] 0.082 | [7] 0.033 | [8] 0.056
